From patent US7060444B1, “Zone 3 necrosis associated markers and method of use thereof” (CuraGen Corporation, priority 2002, dated 2006)

Tested on: Rat primary hepatocytes

CC(C)c1c(C(=O)Nc2ccccc2)c(-c2ccccc2)c(-c2ccc(F)cc2)n1CC[C@@H](O)C[C@@H](O)CC(=O)O [Atorvastatin]
Zone 3 Necrosis Pathology: Absent
